# Measurements: PMC9800341, “THOC5 complexes with DDX5, DDX17, and CDK12 to regulate R loop structures and transcription elongation rate”
# Protein sequences, listed by entry. Tags and fused reporters are not part of them.
# UniProt P17844: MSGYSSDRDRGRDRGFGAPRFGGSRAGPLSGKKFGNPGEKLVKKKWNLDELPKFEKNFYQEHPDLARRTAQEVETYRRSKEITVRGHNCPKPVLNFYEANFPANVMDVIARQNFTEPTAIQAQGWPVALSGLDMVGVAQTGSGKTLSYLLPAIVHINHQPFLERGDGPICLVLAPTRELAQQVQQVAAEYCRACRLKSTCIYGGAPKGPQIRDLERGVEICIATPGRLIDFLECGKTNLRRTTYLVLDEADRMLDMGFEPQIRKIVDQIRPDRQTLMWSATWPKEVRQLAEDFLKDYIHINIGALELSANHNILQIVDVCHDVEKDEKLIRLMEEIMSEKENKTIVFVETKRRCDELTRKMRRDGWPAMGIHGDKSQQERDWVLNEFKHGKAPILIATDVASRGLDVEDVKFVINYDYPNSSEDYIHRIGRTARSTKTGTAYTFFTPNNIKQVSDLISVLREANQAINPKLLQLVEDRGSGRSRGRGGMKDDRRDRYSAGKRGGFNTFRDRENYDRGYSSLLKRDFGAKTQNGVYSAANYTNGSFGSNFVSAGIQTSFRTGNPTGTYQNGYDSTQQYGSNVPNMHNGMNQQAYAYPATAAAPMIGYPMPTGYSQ
# UniProt Q92841: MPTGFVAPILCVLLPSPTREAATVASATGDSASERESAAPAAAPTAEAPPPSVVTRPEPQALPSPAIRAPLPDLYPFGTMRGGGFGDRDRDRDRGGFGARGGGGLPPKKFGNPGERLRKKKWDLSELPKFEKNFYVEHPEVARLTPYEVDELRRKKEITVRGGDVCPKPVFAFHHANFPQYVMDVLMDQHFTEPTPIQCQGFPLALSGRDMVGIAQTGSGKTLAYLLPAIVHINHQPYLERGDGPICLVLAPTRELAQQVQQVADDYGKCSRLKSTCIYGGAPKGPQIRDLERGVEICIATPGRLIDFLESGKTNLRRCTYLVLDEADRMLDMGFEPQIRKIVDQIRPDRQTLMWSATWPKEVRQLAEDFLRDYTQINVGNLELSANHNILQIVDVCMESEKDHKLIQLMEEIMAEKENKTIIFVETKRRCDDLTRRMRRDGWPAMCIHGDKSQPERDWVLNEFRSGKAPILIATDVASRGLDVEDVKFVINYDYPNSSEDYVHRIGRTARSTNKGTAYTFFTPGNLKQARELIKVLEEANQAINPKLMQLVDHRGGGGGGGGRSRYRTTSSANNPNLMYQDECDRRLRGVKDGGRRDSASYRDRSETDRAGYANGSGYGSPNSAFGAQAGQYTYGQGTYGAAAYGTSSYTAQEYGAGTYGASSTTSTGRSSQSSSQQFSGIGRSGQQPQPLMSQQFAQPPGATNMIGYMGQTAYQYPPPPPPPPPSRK
# UniProt O43143: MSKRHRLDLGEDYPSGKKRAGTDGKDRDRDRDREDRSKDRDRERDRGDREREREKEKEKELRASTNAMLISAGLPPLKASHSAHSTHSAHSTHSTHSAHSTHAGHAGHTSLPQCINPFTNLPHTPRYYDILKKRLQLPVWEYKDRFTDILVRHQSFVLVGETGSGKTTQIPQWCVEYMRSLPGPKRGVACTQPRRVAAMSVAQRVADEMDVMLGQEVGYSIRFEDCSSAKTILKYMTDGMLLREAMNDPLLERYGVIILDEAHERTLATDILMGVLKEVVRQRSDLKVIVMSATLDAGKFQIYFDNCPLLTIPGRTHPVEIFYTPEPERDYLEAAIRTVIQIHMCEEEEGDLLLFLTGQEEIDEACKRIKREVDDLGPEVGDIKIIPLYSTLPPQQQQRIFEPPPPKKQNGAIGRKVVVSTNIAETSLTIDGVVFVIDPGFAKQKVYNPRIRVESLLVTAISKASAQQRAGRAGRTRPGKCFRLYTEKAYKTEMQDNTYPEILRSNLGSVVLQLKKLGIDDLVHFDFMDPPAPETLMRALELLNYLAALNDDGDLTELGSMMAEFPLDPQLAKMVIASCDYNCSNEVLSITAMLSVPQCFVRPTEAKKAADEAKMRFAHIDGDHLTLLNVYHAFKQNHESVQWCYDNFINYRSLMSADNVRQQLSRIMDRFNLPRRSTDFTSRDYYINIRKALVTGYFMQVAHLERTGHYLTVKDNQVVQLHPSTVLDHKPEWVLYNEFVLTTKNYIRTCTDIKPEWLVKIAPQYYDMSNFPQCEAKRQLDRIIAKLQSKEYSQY
# Like-named read-outs stand apart in the source and are kept apart here. Results are given in words; binding and its absence hold for the method and conditions named. In cells and extracts the contact can be indirect. A yes stands for co-enrichment or nearness to the bait. Other partners may have been found.
# T1: THOC5 (chromatin-associated, endogenous) (human (endogenous in HEK293)) (UniProt Q13769)
# T1 sequence: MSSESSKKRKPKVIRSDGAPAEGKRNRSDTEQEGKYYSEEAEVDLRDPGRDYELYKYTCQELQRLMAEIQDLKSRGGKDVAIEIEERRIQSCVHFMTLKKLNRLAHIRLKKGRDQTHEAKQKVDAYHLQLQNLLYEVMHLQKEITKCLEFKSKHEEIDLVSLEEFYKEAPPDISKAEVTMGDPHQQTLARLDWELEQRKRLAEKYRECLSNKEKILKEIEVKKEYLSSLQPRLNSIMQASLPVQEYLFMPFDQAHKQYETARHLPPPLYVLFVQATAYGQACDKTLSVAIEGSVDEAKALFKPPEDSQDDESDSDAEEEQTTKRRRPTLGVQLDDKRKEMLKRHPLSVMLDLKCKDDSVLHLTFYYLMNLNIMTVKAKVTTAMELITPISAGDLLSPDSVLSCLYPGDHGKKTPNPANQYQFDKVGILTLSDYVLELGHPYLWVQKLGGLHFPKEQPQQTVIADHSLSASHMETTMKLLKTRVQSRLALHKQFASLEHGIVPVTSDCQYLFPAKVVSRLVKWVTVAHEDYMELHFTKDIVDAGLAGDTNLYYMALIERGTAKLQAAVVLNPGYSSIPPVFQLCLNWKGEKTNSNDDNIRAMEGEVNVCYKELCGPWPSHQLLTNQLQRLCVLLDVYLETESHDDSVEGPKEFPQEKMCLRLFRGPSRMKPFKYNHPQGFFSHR
# Assays:
# [1] = molecular target: T1, THOC5 (chromatin-associated, endogenous) (human (endogenous in HEK293)); experiment: affinity purification with mass spectrometry; endogenous THOC5 precipitated with mouse monoclonal anti-THOC5 on Protein G Agarose-PLUS from the chromatin-associated fraction of HEK293 cells expressing slow Pol II (fast Pol II cells in parallel, see a2); 150 mM NaCl, 0.5% NP-40, RNAse A, 8 h at 4°C; proteins also found with control IgG …
# [2] = molecular target: T1, THOC5 (chromatin-associated, endogenous) (human (endogenous in HEK293)); experiment: as above; remark: listed apart in the source
Molecule,binding [1],binding [2]
DEAD box helicase DDX5 (endogenous) (from UniProt P17844 1-614),binds,
DEAD box helicase DDX17 (endogenous) (from UniProt Q92841 1-729),binds,
DEAH box helicase DHX15 (endogenous) (from UniProt O43143 1-795),binds,
"THOC6 (endogenous) (protein, UniProt Q86W42 1-341) MERAVPLAVPLGQTEVFQALQRLHMTIFSQSVSPCGKFLAAGNNYGQIAIFSLSSALSSEAKEESKKPVVTFQAHDGPVYSMVSTDRHLLSAGDGEVKAWLWAEMLKKGCKELWRRQPPYRTSLEVPEINALLLVPKENSLILAGGDCQLHTMDLETGTFTRVLRGHTDYIHCLALRERSPEVLSGGEDGAVRLWDLRTAKEVQTIEVYKHEECSRPHNGRWIGCLATDSDWMVCGGGPALTLWHLRSSTPTTIFPIRAPQKHVTFYQDLILSAGQGRCVNQWQLSGELKAQVPGSSPGLLSLSLNQQPAAPECKVLTAAGNSCRVDVFTNLGYRAFSLSF",,binds
"DEAD box helicase DDX50 (endogenous) (protein, UniProt Q9BQ39 1-737) MPGKLLWGDIMELEAPLEESESQKKERQKSDRRKSRHHYDSDEKSETRENGVTDDLDAPKAKKSKMKEKLNGDTEEGFNRLSDEFSKSHKSRRKDLPNGDIDEYEKKSKRVSSLDTSTHKSSDNKLEETLTREQKEGAFSNFPISEETIKLLKGRGVTYLFPIQVKTFGPVYEGKDLIAQARTGTGKTFSFAIPLIERLQRNQETIKKSRSPKVLVLAPTRELANQVAKDFKDITRKLSVACFYGGTSYQSQINHIRNGIDILVGTPGRIKDHLQSGRLDLSKLRHVVLDEVDQMLDLGFAEQVEDIIHESYKTDSEDNPQTLLFSATCPQWVYKVAKKYMKSRYEQVDLVGKMTQKAATTVEHLAIQCHWSQRPAVIGDVLQVYSGSEGRAIIFCETKKNVTEMAMNPHIKQNAQCLHGDIAQSQREITLKGFREGSFKVLVATNVAARGLDIPEVDLVIQSSPPQDVESYIHRSGRTGRAGRTGICICFYQPRERGQLRYVEQKAGITFKRVGVPSTMDLVKSKSMDAIRSLASVSYAAVDFFRPSAQRLIEEKGAVDALAAALAHISGASSFEPRSLITSDKGFVTMTLESLEEIQDVSCAWKELNRKLSSNAVSQITRMCLLKGNMGVCFDVPTTESERLQAEWHDSDWILSVPAKLPEIEEYYDGNTSSNSRQRSGWSSGRSGRSGRSGGRSGGRSGRQSRQGSRSGSRQDGRRRSGNRNRSRSGGHKRSFD",,binds
